Measured values taken from the supplement of paper PMC5949888.
Most values lie at the floor of the assay. Slopes are relative: functional sequences can read slightly below zero.

test system: Saccharomyces cerevisiae PS128 hsf1 delta, HSF1(1-493) fusion; assay: growth estimate (transactivation domain function in HSF1 fusion, heat-shock survival) (a.u. (slope of normalised read count over time)); higher = stronger growth at 37°C, i.e. more transactivation activity; conditions: library: random library

| Substance | growth estimate |
| --- | --- |
| CSESREKISTVRRSWGSRWQ | < -0.25 |
| SHLVYSLQASD | < -0.25 |
| VRGG | < -0.25 |
| RHCGASADCSTATA | < -0.25 |
| IMASRYEGCIVLELPPGSFK | < -0.25 |
| GKT | < -0.25 |
| YKGRQKMNGEAVDCPWN | < -0.25 |
| VRRGAAANSLRVIPAILSWH | < -0.25 |
| YLCKHG | -0.248 |
| DTVPDPA | < -0.25 |
| ACSLILTVDAIVRGYVIFRR | < -0.25 |
| RPLRLCILTERLLRRQVSRK | -0.228 |
| VCCRRSIIRKG | < -0.25 |
| MARGS | < -0.25 |
| HPAL | < -0.25 |
| GLGMVRL | -0.245 |
| SGVV | < -0.25 |
| VIAMASRRLGGICLVQR | < -0.25 |
| SWYRL | < -0.25 |
| GPVLSPGAEKTVCGATTFTY | < -0.25 |
| SHGGTSSWYVQAFNRCR | < -0.25 |
| KLPPNLHCPTNRWSRPKISR | < -0.25 |
| TFVEAHALWIL | < -0.25 |
| GAIVVT | < -0.25 |
| QLN | < -0.25 |

| Substance | growth estimate |
| --- | --- |
| RAIIDTQQEICGVKVAIKLA | -0.246 |
| IEAACMGVDDWARIQNTSYL | -0.147 |
| CQM | < -0.25 |
| CPRVRAKVMTSTRIDRVRVS | < -0.25 |
| CGLATRDGTFT | < -0.25 |
| NVDRVCVIRTW | < -0.25 |
| PEY | < -0.25 |
| INH | < -0.25 |
| NGHFTE | < -0.25 |
| RLNFSEQAARAWRVALHNEF | < -0.25 |
| HTDSTGAQRSDHSTRWRGL | < -0.25 |
| VPVPREASPFCPS | < -0.25 |
| HTPIGVSLGNTGLRQTQPYD | < -0.25 |
| LYRSCFGFGS | < -0.25 |
| WWSNVARDRPPSNRCEELSG | < -0.25 |
| HSDGCRRSHPGFRSFITSFT | < -0.25 |
| RVGCEWTLWG | < -0.25 |
| RPMSGETDQA | < -0.25 |
| LRHGEVCNYRGSC | < -0.25 |
| SCTDRRSFRFNL | < -0.25 |
| PWLGYRRTVGYLVHGRLCLT | -0.246 |
| HPLMSGVSIHTWSARTLRRR | < -0.25 |
| ASDNPATEIRPRNYRPGLVR | < -0.25 |
| GFRSIGY | < -0.25 |
| GAISVRGTPLPHPCAQVTLC | < -0.25 |

| Substance | growth estimate |
| --- | --- |
| SICVEMAWRSGSASADRTFY | < -0.25 |
| IGDCWDVPMYTMCTVLIRHL | < -0.25 |
| GFLTRAIT | < -0.25 |
| LGFKNRLRDSGGL | < -0.25 |
| CLFIRRPMLNARGVIAACWA | -0.243 |
| LNRRGLRESVQFRLQI | < -0.25 |
| RKNFEKSARRGQARALT | < -0.25 |
| SSLSACRDLSHTANSPISKA | < -0.25 |
| GSSDR | < -0.25 |
| SLEQWASHGKAGVQEDWNLG | < -0.25 |
| PRTDGVSVEEFLGMRYRRGV | < -0.25 |
| CEIKCMTLLLHELRALITCG | < -0.25 |
| HSQFLRRPPTITGCDVVGPT | < -0.25 |
| GSGARMYVVLLP | -0.245 |
| GFSRRIDCANRSSTRESRNQ | -0.246 |
| SSLPTADGLREDSCELLPAG | < -0.25 |
| AGSFTVPVLFYRPDVLPTPI | < -0.25 |
| LAKRLCSSWSHLT | < -0.25 |
| RRCEFPT | < -0.25 |
| AGVPEELLGDRNRGSFRGAC | < -0.25 |
| CLEVLALNRHGAERMLRLTQ | < -0.25 |
| GMIVYIWTTGGTSGLIRKAI | < -0.25 |
| TQQTTGLPSD | < -0.25 |
| SMLVRRWTANRSTINRVFSM | < -0.25 |
| VWGGVSPLGNLQPCWWLIHP | < -0.25 |

| Substance | growth estimate |
| --- | --- |
| VESVRAPQ | < -0.25 |
| AERLMLHGCGQCLKASWGLA | < -0.25 |
| VEVEMCDSYGSASDSADQTG | < -0.25 |
| GRGAGSSARWASNWPPRVGE | < -0.25 |
| CLLLGEDAKTRCTRCLTVSR | < -0.25 |
| GVFYPIWRRSAAKHICLPSE | < -0.25 |
| TCPLVRRRKIRV | < -0.25 |
| VGMSCKRMRKPQ | < -0.25 |
| APHAPKFLREADSIHSI | < -0.25 |
| RILRACCGLSRFPSRRHIRS | < -0.25 |
| MVVR | < -0.25 |
| PGRRWVTTSALYTIFCRGER | < -0.25 |
| PHNHSYRCDQVRILMRLLFD | < -0.25 |
| SVLPGGFAY | < -0.25 |
| PLPSLIVERCAHESSAVRGL | < -0.25 |
| NFTGGVCSSAPLTGPIVESV | < -0.25 |
| LYRNWGVKL | < -0.25 |
| PVVLMNGFVL | < -0.25 |
| IFVESGGQS | < -0.25 |
| QLRGRIFQEPTHKGNWSGLT | < -0.25 |
| TILGVEQWTCSLAARVLIE | < -0.25 |
| TERRSDLCPRVTT | < -0.25 |
| ARGLFGM | -0.248 |
| EESAGARVPCTPGAHQIARC | < -0.25 |
| PNLATATLLPVGHVSLIR | < -0.25 |

| Substance | growth estimate |
| --- | --- |
| DHIFQLVGFRIHGRKFDHLI | 0.0323 |
| KAV | < -0.25 |
| VCSHSE | < -0.25 |
| AACRGGAGKSPPDHPVAEFS | < -0.25 |
| TLGPGSEQLKRVALEPGTAW | < -0.25 |
| SPPF | < -0.25 |
| GLQVTRQTTSVLEAVSSL | < -0.25 |
| RGFM | < -0.25 |
| SFLSHYTGNFLPFIRKIVKH | < -0.25 |
| LYRTYQRRGYIWVSHNSCVY | < -0.25 |
| EVVR | < -0.25 |
| SIASATLKYGLNP | < -0.25 |
| VRSSVVDFPASSWRILLARC | < -0.25 |
| ESRKSSSYHVKLKPPLERAV | < -0.25 |
| SRGHGPRDRRSSYHANDY | < -0.25 |
| QAAGSDRMSSYISLFIGFGG | < -0.25 |
| DAHGLPR | < -0.25 |
| PPGFWVEKRCLK | < -0.25 |
| GQETRTREVWRIKDSINRLR | < -0.25 |
| LDHGTQFFMGYLLTRSTVRT | < -0.25 |
| DQRAQAVQYRSESRAEAPTR | < -0.25 |
| FKGIGRKELNQMTPAGREQP | < -0.25 |
| TAFDTWGS | < -0.25 |
| NGLWCTGSF | < -0.25 |
| HVVESPHR | < -0.25 |

| Substance | growth estimate |
| --- | --- |
| YSLKFAPIAERVKGGFSNRG | < -0.25 |
| TSDRPRNCG | < -0.25 |
| EASVQEGGTISITVRSGD | < -0.25 |
| PRAYDVLSSCPWPPAGGSNR | < -0.25 |
| FNRVCPPLTAALVSQHNALR | < -0.25 |
| NGIHVSVEYRAGRASFVSAT | < -0.25 |
| LMEFSNLDPSS | < -0.25 |
| TVRQLETNFDGPVTLLQPAT | < -0.25 |
| AFQVVRCAGPNTYQAYTLPA | < -0.253 |
| TVARIKRSGYISVSLLASSS | < -0.25 |
| IWHLVAGIGAPPWY | -0.221 |
| FGTSRQKTCCPLSLQRDRFP | -0.245 |
| DEDVR | < -0.25 |
| KCQPNGALDRYSGVNTRCLG | < -0.25 |
| LNSIVRLSIVGKASSQNLSR | < -0.25 |
| ECFIVDAERYWPMASKVTAG | < -0.25 |
| PKCVAEEHIYPSIP | < -0.25 |
| GKITSPRAVSVPQFIYKSSP | < -0.25 |
| RSALGQDTRAGVTLTHCTLR | < -0.25 |
| KEHLLNGPQGESTLCPP | < -0.25 |
| CKLRGPRSGRPRARSTLLQF | -0.182 |
| VWNKHSLGLSVDVKIGAHAR | < -0.25 |
| ITTRGLMPPWLRIFSASNPR | < -0.25 |
| YMG | < -0.25 |
| SLIFVIPMGRHMY | < -0.25 |

Taken from above:
In growth estimate, GKT reads < -0.25
In growth estimate, AGSFTVPVLFYRPDVLPTPI reads < -0.25
In growth estimate, SGVV reads < -0.25
In growth estimate, TERRSDLCPRVTT reads < -0.25
In growth estimate, ASDNPATEIRPRNYRPGLVR reads < -0.25
In growth estimate, VCCRRSIIRKG reads < -0.25
In growth estimate, CEIKCMTLLLHELRALITCG reads < -0.25

More entries.

| Substance | growth estimate |
| --- | --- |
| SQAQRRMSDTPLVTLEVPIS | < -0.25 |
| TAETRIQDGPGRICMPWSLD | < -0.25 |
| LLLMNFKAI | < -0.25 |
| GRMGSDVILRR | < -0.25 |
| LQTLASVGQQNRFFPRAYID | < -0.25 |
| IRDPSAGFVSNVRVDRKDPA | < -0.25 |
| GLRAGMVPH | < -0.25 |
| TYNGNMSR | -0.243 |
| TTQLGFHPGTVLVGVLLTIK | 0.342 |
| DGLGVRRYQKITTVRNVNLC | < -0.25 |
| QLLEERRPGLGVWS | < -0.25 |
| SIIRLIQCIIRATGVKLVHT | < -0.25 |
| RRSQTMTCQGSVTSWKCYGE | < -0.25 |
| LHCA | < -0.25 |
| SGATGRYGVRSHSSIIFEVD | < -0.25 |
| MNGMPSDVRRRNLQGP | < -0.25 |
| HSSIKFRGYQES | < -0.25 |
| AYLYEGGPHVGYFRLGRKTC | < -0.25 |
| VFQPCI | < -0.25 |
| RLRLIIRIRWDLIRTT | < -0.25 |
| LRYVVRWGPAVLLQTILWYR | < -0.25 |
| LLRIPLVSRVHSPRFSIGSW | < -0.25 |
| WDGVVAVASGTKLFETIVSV | < -0.25 |
| SGQPHDAIAAGYISELE | < -0.25 |
| WKNIGFNFL | < -0.25 |

A different layout for some results above.
PHNHSYRCDQVRILMRLLFD
  growth estimate: < -0.25
SVLPGGFAY
  growth estimate: < -0.25

Following part.

| Substance | growth estimate |
| --- | --- |
| DRRLAGFYLGIVERKVAAPA | < -0.25 |
| RGLASTVFRVSKGPLIHKSM | < -0.25 |
| GYINGHRRGQLLQPGLS | < -0.25 |
| VVRMRSDKHAYDRSSESIVA | < -0.25 |
| FCSGCCSEKVTGSGSSGYKL | < -0.25 |
| SEHYEL | < -0.25 |
| WRATVTEEEHQPCGDNRS | < -0.25 |
| AHGPRQASQVLCPGEHSGRG | < -0.25 |
| MLLLAGQYVEVIITQRWDIQ | < -0.25 |
| PEAEDKGARTGTPIGTSANQ | < -0.25 |
| FTTRASASAACTCCIRQRRR | < -0.25 |
| GPHCLTFGRRPLGHPSLESD | < -0.25 |
| YSAFTRRPCTCHHSSSRRSD | < -0.25 |
| LTTVVRRRRTRR | -0.246 |
| ATRDEQGSGDVDCLTVAGRI | < -0.25 |
| LYLSFKSC | < -0.25 |
| YFRVGFINGKLDEDLV | < -0.25 |
| LGRG | < -0.25 |
| VMQKGACWRPASRFSAKIRT | < -0.25 |
| FWALNANT | < -0.25 |
